This is an account of results in the M2OR odorant receptor database.

Molecules are shown by their SMILES. The entries are a selection whose mix differs from that of the whole data set. Calls are pooled over several reports, among them a noisy single-well screen. The list shows a part of the results.

Common to all, as to settings: stereoisomer not certain
In one assay the test system is T1, OR8U9.
T1 sequence (whole entry): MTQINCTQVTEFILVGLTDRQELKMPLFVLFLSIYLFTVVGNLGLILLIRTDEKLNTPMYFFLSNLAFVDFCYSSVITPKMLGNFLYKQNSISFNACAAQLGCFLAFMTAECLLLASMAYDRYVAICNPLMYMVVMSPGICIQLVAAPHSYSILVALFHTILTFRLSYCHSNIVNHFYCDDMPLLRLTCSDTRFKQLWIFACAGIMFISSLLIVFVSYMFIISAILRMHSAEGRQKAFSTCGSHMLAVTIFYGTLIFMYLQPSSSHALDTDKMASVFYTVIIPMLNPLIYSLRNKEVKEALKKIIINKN
The gist of the method: (§1)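 Each entry records the cell line, G-protein, co-transfected protein and tags used. Methods varied with the source, often transient luciferase assays in mammalian cell lines. A receptor–molecule pair is called responsive (active) if the original authors judged its signal statistically different from baseline and non-responsive (inactive) otherwise.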

The next assay deals with T2, OR9A2.
T2 sequence (whole entry): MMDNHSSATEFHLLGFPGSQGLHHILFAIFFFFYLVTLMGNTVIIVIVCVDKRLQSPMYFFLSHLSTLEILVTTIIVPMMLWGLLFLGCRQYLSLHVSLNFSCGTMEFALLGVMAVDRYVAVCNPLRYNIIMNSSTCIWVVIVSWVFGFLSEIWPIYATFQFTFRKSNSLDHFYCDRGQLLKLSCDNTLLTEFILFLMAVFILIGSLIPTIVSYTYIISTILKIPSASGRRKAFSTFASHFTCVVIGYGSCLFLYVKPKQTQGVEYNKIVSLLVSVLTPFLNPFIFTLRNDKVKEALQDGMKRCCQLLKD
The gist of the method: as §1

A further assay has as its target T3, OR9A4 (Homo sapiens) (UniProt Q8NGU2).
T3 sequence (whole entry): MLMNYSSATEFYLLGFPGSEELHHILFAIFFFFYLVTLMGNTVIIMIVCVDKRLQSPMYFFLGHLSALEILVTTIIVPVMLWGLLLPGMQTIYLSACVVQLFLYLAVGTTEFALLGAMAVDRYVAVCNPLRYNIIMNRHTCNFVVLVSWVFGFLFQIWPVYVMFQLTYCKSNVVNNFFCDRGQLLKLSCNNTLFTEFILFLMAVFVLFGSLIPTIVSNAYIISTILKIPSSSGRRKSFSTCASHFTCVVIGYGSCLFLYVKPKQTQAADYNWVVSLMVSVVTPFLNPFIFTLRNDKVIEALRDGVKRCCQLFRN
The gist of the method: as §1

With `CCCCCCOC(=O)CCC`, the “odorant receptor agonist call” value with OR8U9, in the assay with OR9A2 and with OR9A4 (Homo sapiens) was “inactive” each time.
As to `COC(=O)c1ccccc1O`, the “odorant receptor agonist call” value in the assay with OR8U9, with OR9A2 and with OR9A4 (Homo sapiens) was “inactive” in each case.
Consider `CC(=O)OCC=C(C)CCC=C(C)C`, for which the “odorant receptor agonist call” value with OR8U9 and with OR9A2 was “inactive” throughout. The “odorant receptor agonist call” value in the assay with OR9A4 (Homo sapiens) is “active”.
For the compound `CC(C)CCC(=O)O`, the “odorant receptor agonist call” value with OR8U9, with OR9A2 and in the assay with OR9A4 (Homo sapiens) was “inactive” in each case.
With `O=C1CCCCCCCCCCCC(=O)OCCO1`, the “odorant receptor agonist call” value in the assay on OR8U9, with OR9A2 and in the assay with OR9A4 (Homo sapiens) was “inactive” throughout.
In the case of `CC1CCC(C(C)C)C(O)C1` (stereo not drawn), the “odorant receptor agonist call” value in the assay with OR8U9, in the assay on OR9A2 and with OR9A4 (Homo sapiens) was “inactive” throughout.
